Laboratory results reported in publication PMC7819943, “Rice protein-binding microarrays: a tool to detect cis-acting elements near promoter regions in rice”.
Some of the results follow.

Sequences of proteins named here, by UniProt entry; tags and fusion partners are left off.
UniProt Q0JBA9, entry or part of it: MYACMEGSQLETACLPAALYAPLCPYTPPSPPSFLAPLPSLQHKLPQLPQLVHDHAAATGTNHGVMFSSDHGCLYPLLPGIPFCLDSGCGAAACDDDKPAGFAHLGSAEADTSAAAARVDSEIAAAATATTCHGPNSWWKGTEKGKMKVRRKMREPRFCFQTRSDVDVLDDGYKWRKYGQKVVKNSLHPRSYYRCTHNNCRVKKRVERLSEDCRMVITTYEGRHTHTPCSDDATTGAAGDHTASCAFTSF

target: OsWRKY34 (Oryza sativa, UniProt Q0JBA9 1-250); assay: protein-binding microarray (RPBM); PBS, 2% BSA, 51.3 ng/ul salmon testes DNA, 50 uM zinc acetate, 200 nM TF, 25 C, 1 h; high values mean tight binding; settings: protein: recombinant; tags: N-terminal polyhistidine and DsRed monomer fusion (pET32a); label: CyDye5-dUTP incorporated in the synthesized complementary strand; 3' TTTTT single-stranded linker to array surface; dsDNA, one strand shown
Method in brief: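 Ni–NTA purification followed expression in E. coli BL21-CodonPlus of transcription factors fused N-terminally to a polyhistidine tag and DsRed. At 200 nM in PBS with 2% BSA, salmon testes DNA and 50 µM zinc acetate, the protein was incubated for 1 h at 25 °C with a custom Agilent array that had been primer-extended with Cy5-dUTP and blocked with 2% BSA. After washing, the array was read on an Axon 4000B scanner. The binding signal is per-feature fluorescence intensity in arbitrary units.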

Sequence	binding signal
CTCCCTCAGTACATTACTCCCTCCGTTATCGTTTGACTTTCGGAGTCACCTAGTGCAG	10800 fluorescence intensity (a.u.)
CGGAAACACCCGTCTTACTGGCGAACCGCCGGCAACGGCGCGGAGTCACCTAGTGCAG	8150 fluorescence intensity (a.u.)
CGTTAGTGGTTCGTCCTGTTAATTCTGTCCTGCTACTTTACGGAGTCACCTAGTGCAG	11700 fluorescence intensity (a.u.)
TCTCTTCGCTCTGCCCACTTGCTAAACCATACCGGCGATACGGAGTCACCTAGTGCAG	9960 fluorescence intensity (a.u.)
AGGAGGAGGAGGAGGAGGAGGGGATTGTGACTTGTGATCTCGGAGTCACCTAGTGCAG	8450 fluorescence intensity (a.u.)
TTTCCGTCTCTCTCTCCTGTGCTGGCCGCAAGCGAAGTCCCGGAGTCACCTAGTGCAG	9040 fluorescence intensity (a.u.)
GCAAGTTTGACCAAATTAGTCTATTGTTTGGTTCATAGTCCGGAGTCACCTAGTGCAG	14300 fluorescence intensity (a.u.)
TGCCATAAAACCGACCCGTCACGTACTAAAAACTCCTTCCCGGAGTCACCTAGTGCAG	9780 fluorescence intensity (a.u.)
TTTATGCGTGACTTATCCTTTTATTTTTTTTCATAATTTTCGGAGTCACCTAGTGCAG	8290 fluorescence intensity (a.u.)
GAGGTGGTGGTGGTGGTGGTGGATGGCGCCCTGCTTTGACCGGAGTCACCTAGTGCAG	23500 fluorescence intensity (a.u.)
TTCGCTCACAAGTCGCAAACAGTGATTTCACCTATCCTGTCGGAGTCACCTAGTGCAG	8110 fluorescence intensity (a.u.)
TGTCTTTTCCTTTTGGCCCATCTCTCTCTTTAGCCCAGGCCGGAGTCACCTAGTGCAG	8150 fluorescence intensity (a.u.)
CATAATTATCCCATATTCTTATATCTCTATTCTATGCATTCGGAGTCACCTAGTGCAG	8900 fluorescence intensity (a.u.)
GTTTTGTTGGGTCGGCGGCGGCGGGTGAGAGTGGAGAATGCGGAGTCACCTAGTGCAG	12900 fluorescence intensity (a.u.)
CAATTTGGCATTTGGCATTTGCTAGTCTATAGTAGCAAATCGGAGTCACCTAGTGCAG	8130 fluorescence intensity (a.u.)
ATAGTAATTCCTCTTTTTCACAATGCAAGTCATTTTAGTACGGAGTCACCTAGTGCAG	8500 fluorescence intensity (a.u.)
GTTGGTCAAATTAAGTCAAGCTACGCACTCAGCCCTCTTTCGGAGTCACCTAGTGCAG	8050 fluorescence intensity (a.u.)
CATTCATGGGCCAAGTTTAGCCATCTTGTTATGTTACATCCGGAGTCACCTAGTGCAG	10500 fluorescence intensity (a.u.)
TTGAGGGGATTGTTGGGGAATGGGGCCTTATTAGGGATATCGGAGTCACCTAGTGCAG	11100 fluorescence intensity (a.u.)
TCTCACTTCCAGATGCGTGTTTTTTAGGCAACATGATTTCCGGAGTCACCTAGTGCAG	9900 fluorescence intensity (a.u.)
ATGACAATGGATACTTCTCAATATCTGTCCTAGTTTGTTTCGGAGTCACCTAGTGCAG	8110 fluorescence intensity (a.u.)

Retrieved one by one from above, 6 records:
Sequence	binding signal
AGGAGGAGGAGGAGGAGGAGGGGATTGTGACTTGTGATCTCGGAGTCACCTAGTGCAG	8450 fluorescence intensity (a.u.)
ATAGTAATTCCTCTTTTTCACAATGCAAGTCATTTTAGTACGGAGTCACCTAGTGCAG	8500 fluorescence intensity (a.u.)
GTTGGTCAAATTAAGTCAAGCTACGCACTCAGCCCTCTTTCGGAGTCACCTAGTGCAG	8050 fluorescence intensity (a.u.)
CATAATTATCCCATATTCTTATATCTCTATTCTATGCATTCGGAGTCACCTAGTGCAG	8900 fluorescence intensity (a.u.)
CGTTAGTGGTTCGTCCTGTTAATTCTGTCCTGCTACTTTACGGAGTCACCTAGTGCAG	11700 fluorescence intensity (a.u.)
TTCGCTCACAAGTCGCAAACAGTGATTTCACCTATCCTGTCGGAGTCACCTAGTGCAG	8110 fluorescence intensity (a.u.)

(cont.)

Sequence	binding signal
GCGTGACATCATCTTTATTTCGTTCGCTCCATCTCTGAACCGGAGTCACCTAGTGCAG	8260 fluorescence intensity (a.u.)
GTTGTCTCGTCTCGTCAGTTGAGTTGAGTAGTGTTGACTTCGGAGTCACCTAGTGCAG	9250 fluorescence intensity (a.u.)
ACACACAACATCACCTTGTTTCTTCTACGAGTGCTTCCGTCGGAGTCACCTAGTGCAG	8160 fluorescence intensity (a.u.)
TGATGATCGATTCAATCCTAGACTCCCAGTACCTCCATATCGGAGTCACCTAGTGCAG	8440 fluorescence intensity (a.u.)
CCGTTTCAGCCGTCCGATTTCACACGTGGACGTCCACGATCGGAGTCACCTAGTGCAG	11000 fluorescence intensity (a.u.)
GCACGGCTCATTTGCCACTACCGTGCTTGGGCCGGCGCTTCGGAGTCACCTAGTGCAG	10100 fluorescence intensity (a.u.)
TCCCACTTGCCGCGCCGCGCAGCCCAGCCATCCATCCACACGGAGTCACCTAGTGCAG	9140 fluorescence intensity (a.u.)
CGTATATGTTACAGTAAGCACGCCTCTTTCTCAATCATTGCGGAGTCACCTAGTGCAG	8280 fluorescence intensity (a.u.)
CTCCATCCGTTTTAAAATGTTTGACACCGTTGACTTTTTACGGAGTCACCTAGTGCAG	27300 fluorescence intensity (a.u.)
GGCCCTATTTAGATCTCCTGCCAAAATTTTACACTCTGTCCGGAGTCACCTAGTGCAG	10700 fluorescence intensity (a.u.)
AGTCCTTTTTGCTCCTCTATCTCTCAGATCTTCTGATCGACGGAGTCACCTAGTGCAG	10600 fluorescence intensity (a.u.)
TCCTATCATGCGTGTGCCTCTAGCCCCGGTAGTAATTAACCGGAGTCACCTAGTGCAG	8770 fluorescence intensity (a.u.)
ACCAGAAACATTCCATTTCCGTATACCTCGTCCTCGTGTCCGGAGTCACCTAGTGCAG	8180 fluorescence intensity (a.u.)
TCTCGCCATTTCCGCGGCGCCACCGCACTCCGCCACTCTCCGGAGTCACCTAGTGCAG	9030 fluorescence intensity (a.u.)
CTACCCCTAATTCTAGGCACCGCTCTTCTACCTTTGGCCTCGGAGTCACCTAGTGCAG	10000 fluorescence intensity (a.u.)
ACACTTCATGCGTAATTTCTGTGTGCTGATCGATGAACCACGGAGTCACCTAGTGCAG	8630 fluorescence intensity (a.u.)
CATGTACTCCCTGTTGAATTGCACTTTGACCCCTATCATCCGGAGTCACCTAGTGCAG	14300 fluorescence intensity (a.u.)
GGATCTCGTTTGTCTGGTTTTCGTAAGTTGAGGGACGGGTCGGAGTCACCTAGTGCAG	8380 fluorescence intensity (a.u.)
CATCACTCAACGATCGAGCTTGCGGGTGTTGACCGGCCATCGGAGTCACCTAGTGCAG	8160 fluorescence intensity (a.u.)
ATCCTTGTGTCTCTCTGTCTGCACCACTCTCCTCTCTCTTCGGAGTCACCTAGTGCAG	13400 fluorescence intensity (a.u.)
ATTCTGTCTCGATCTCATGTTCAGAATTTTTCCGCAGTTCCGGAGTCACCTAGTGCAG	8750 fluorescence intensity (a.u.)

Sequence	binding signal
CATCGATCTCTCCTAGATTATCTCTCTCTCCAATTTGCTCCGGAGTCACCTAGTGCAG	8310 fluorescence intensity (a.u.)
TCCATCCGTTCCGTTGTGATACCCATGCTGTTATCCGGTTCGGAGTCACCTAGTGCAG	8680 fluorescence intensity (a.u.)
GCCTCATCTCCGTGCATCTCGCTACCTAACCTAGCTAACCCGGAGTCACCTAGTGCAG	8660 fluorescence intensity (a.u.)
CGGGGTGATTCATTCGGGTTCCTGTAGCTACACGCAGTGTCGGAGTCACCTAGTGCAG	9190 fluorescence intensity (a.u.)
TCGGTTTTTCCCATTTGCGCGATTGCCCGGACCGATTTCTCGGAGTCACCTAGTGCAG	11000 fluorescence intensity (a.u.)
GTTGAAACTTTTTTATTTCCTTAGTTCCTTTTTTTCATCACGGAGTCACCTAGTGCAG	9560 fluorescence intensity (a.u.)
GGTGTTTTTCACGCGCGGTCCCCTTCCATGTTGGGGTATTCGGAGTCACCTAGTGCAG	15500 fluorescence intensity (a.u.)
CACGTCGTCGATGCCTTTTCGTTGTTCGCGTCGGGTTCACCGGAGTCACCTAGTGCAG	9440 fluorescence intensity (a.u.)
CTGCCGCTCTGGTTCTCCAACTCTGCATACATATACCTCTCGGAGTCACCTAGTGCAG	12000 fluorescence intensity (a.u.)
CTCCTGCTTCTCTGTTCTTTCCATTCTCCTCCTTTTTTTCCGGAGTCACCTAGTGCAG	14600 fluorescence intensity (a.u.)
TCCGTTCCATCGTAATCCTTCTCCGATCCGAATTTGCTTCCGGAGTCACCTAGTGCAG	9120 fluorescence intensity (a.u.)
CCATCCTCCCCTCCTGCTCGGTTGTTTTCGCTTCAGGTTCCGGAGTCACCTAGTGCAG	9210 fluorescence intensity (a.u.)
CGGGGTATTAGAACTGGCGGGTGTATTTGCTATATTTAGTCGGAGTCACCTAGTGCAG	15100 fluorescence intensity (a.u.)
TCCGCCTCAGCGTCTTAAATGCAACATCTAACTCTCACCACGGAGTCACCTAGTGCAG	8180 fluorescence intensity (a.u.)
TTTGCGGCCGGCTCCTCTCGTTCCAGGGATGCATGATCATCGGAGTCACCTAGTGCAG	9020 fluorescence intensity (a.u.)
TAGCTAGTTACCTTCAATTGCTGTTCGTTTTGCCAAATTACGGAGTCACCTAGTGCAG	8900 fluorescence intensity (a.u.)
CTCTCGCCGCCACCCCGGCCCGCGCGCGCAAGCAACCTTACGGAGTCACCTAGTGCAG	8460 fluorescence intensity (a.u.)
TCCTCCTCTCCTCTTCTCCCTCCTGCGCCGCCGCCACCTCCGGAGTCACCTAGTGCAG	9100 fluorescence intensity (a.u.)
TGTCTGCGCTACAGTGCTACCTGTTCATTCTCCGGTAGCCCGGAGTCACCTAGTGCAG	10000 fluorescence intensity (a.u.)
TAGCTCATTCATGCCTCCATCGGTTGACTTTTTTTTTCTACGGAGTCACCTAGTGCAG	20500 fluorescence intensity (a.u.)
TAAGCTGGCTACAAGTCTATAGCCGCTGCTCTTATCTCTCCGGAGTCACCTAGTGCAG	8100 fluorescence intensity (a.u.)

Sequence	binding signal
GACGGTTCCTGTAGTTTCCGCATCGACCACATCCTCGCGACGGAGTCACCTAGTGCAG	8630 fluorescence intensity (a.u.)
ACGAAATACTACCTCCATATTTTAATGTATCACACCGTTACGGAGTCACCTAGTGCAG	8090 fluorescence intensity (a.u.)
TTCTTTTTAGATAAGTGCTACTTTTATTTTTCCTTCTATACGGAGTCACCTAGTGCAG	8390 fluorescence intensity (a.u.)
TTGCCATCTCATTTCTTGCATCATCTCCTCCCAATTCCAACGGAGTCACCTAGTGCAG	10300 fluorescence intensity (a.u.)
GTGGGTGGTCGGTCTGGTCGAAGGTGAGGGCAACCTCCGACGGAGTCACCTAGTGCAG	9100 fluorescence intensity (a.u.)
ACATTTATTCTCCGATCGCTTTCATAGCTTTTCCTTTTCTCGGAGTCACCTAGTGCAG	11500 fluorescence intensity (a.u.)
ATTTGACATCACCCCTTATATACCCCTGAATTTTCATTTTCGGAGTCACCTAGTGCAG	11500 fluorescence intensity (a.u.)
TCTCTCCTGCCCAAGCGACGGCCGCCGCCGCGTGCCGTCCCGGAGTCACCTAGTGCAG	10200 fluorescence intensity (a.u.)
TCTCTAGTTTCTCGCACCACCTGCCTACATATCGCCACAGCGGAGTCACCTAGTGCAG	11700 fluorescence intensity (a.u.)
GAATTCCAATCAGAGACACGTCCATGTTCCATCATCGCCCCGGAGTCACCTAGTGCAG	8110 fluorescence intensity (a.u.)
TTTCTCCCTTCTGTGTTCCATCCCTAGTCCCCACGCCGGCCGGAGTCACCTAGTGCAG	10400 fluorescence intensity (a.u.)
CTCCAACACACCTCAACCTCACTTGGACATGTATGCATAGCGGAGTCACCTAGTGCAG	8470 fluorescence intensity (a.u.)
TGTGATTTTCTTGTGATTGGGATGTATGGTAATGCTAGGGCGGAGTCACCTAGTGCAG	8150 fluorescence intensity (a.u.)
CACCAGTCAACTCATCCTAACTAACAGGCCTGCAATTCTTCGGAGTCACCTAGTGCAG	8220 fluorescence intensity (a.u.)
TGAATTGGGAAATTTCGGTGTTTTTTTTCTTCTTTTTTTTCGGAGTCACCTAGTGCAG	8740 fluorescence intensity (a.u.)
CAATTTCCCGCGCGCTGTCACGCTCACACAGTTGAGCTCCCGGAGTCACCTAGTGCAG	9920 fluorescence intensity (a.u.)
CTTTATGTTCAATTTCTCTCATACTAGTGACCATGTATTTCGGAGTCACCTAGTGCAG	8510 fluorescence intensity (a.u.)
GAAAAACTCGTTTCTGGACATCTGCAGATGCATTCTTTCTCGGAGTCACCTAGTGCAG	8640 fluorescence intensity (a.u.)
TGATGTGTGGGTGGTGGTGGTGGTGTGCCTTGTGTAGGTACGGAGTCACCTAGTGCAG	20800 fluorescence intensity (a.u.)
ATATTATATAGGGTATCATATGGGGTGTTTGGGCACTAATCGGAGTCACCTAGTGCAG	10100 fluorescence intensity (a.u.)
GGCTAGTCAGGTCACGCTTCGCACGAGTGCTTCTCCCTCACGGAGTCACCTAGTGCAG	8430 fluorescence intensity (a.u.)
